Results deposited as PubChem BioAssay AID1053208 (Peter MacCallum Cancer Centre, 2014)
Shown is one part, drawn at random, of about 17,000 reagents tested. Over the whole deposit, 788 (4.7%) got an active call. 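Calls rest on z-score classes alone; an extra cut-off of viability at most 70% of control was not applied to them.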 A number with no mark means an inactive call. The numbers tell different reagents against one gene apart. Further read-outs or replicates are left out here. No sequences are given here.

- Assay: 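Genes whose silencing cuts survival of bone tumour cells only with doxorubicin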 (primary screen)
- Cells: mouse osteosarcoma cells, early-passage culture from an engineered mouse model of fibroblastic bone tumour
- Reagents: siRNA pool against mouse genes, 40 nM
- Time to read-out: about 120 h (48 h before drug, then 72 h with drug)
- Treatment: doxorubicin 100 nM for 72 h, roughly 30-40% inhibitory dose
- Measured: 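Luminescent ATP signal taken as viability with or without 100 nM doxorubicin for 72 h; mean of two wells set against non-targeting siRNA and turned into robust z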
- Direction: viability z-score with doxorubicin: higher = more viable cells under doxorubicin; viability z-score without drug: higher = more viable cells with knock-down alone
- Call rule: 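a pool counts as active when its viability z-score with doxorubicin is -2 or below and its z-score without drug lies between -2 and 2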

combined z-score class | viability z-score with doxorubicin | viability z-score without drug | Target gene | reagent no.
no change with or without drug | -1.01 | -0.67 | Trib1 (tribbles pseudokinase 1) | 1
no change with or without drug | -0.79 | -0.84 | Dpys (dihydropyrimidinase) | 1
no change with or without drug | 0.11 | 0.51 | Mpc1 | 1
low cell count with doxorubicin only (active) | -2.02 | -0.84 | Sema3c | 1
no change with or without drug | -0.79 | 0.51 | Kars1 (lysyl-tRNA synthetase 1) | 1
no change with or without drug | -0.11 | -0.51 | P2rx5 (purinergic receptor P2X, ligand-gated ion channel, 5) | 1
no change with or without drug | 0.22 | -0.84 | Arhgef15 (Rho guanine nucleotide exchange factor 15) | 1
no change with or without drug | -0.67 | 0.34 | Tut4 (terminal uridylyl transferase 4) | 1
no change with or without drug | 0.67 | -0.17 | Eif2ak2 (eukaryotic translation initiation factor 2-alpha kinase 2) | 1
no change with or without drug | 0 | 0.17 | Tango2 (transport and golgi organization 2) | 1
no change with or without drug | 0 | 0.34 | Lmbr1l (limb region 1 like) | 1
no change with or without drug | 0.45 | 1.52 | Or5ac25 (olfactory receptor family 5 subfamily AC member 25) | 1
no change with or without drug | -0.34 | 0.67 | Or5ac25 (olfactory receptor family 5 subfamily AC member 25) | 2
no change with or without drug | -0.34 | 0.17 | Dkkl1 (dickkopf-like 1) | 1
no change with or without drug | -0.79 | 1.18 | Serpina1b | 1
no change with or without drug | -1.24 | 1.01 | Iba57 (IBA57 iron-sulfur cluster assembly factor) | 1
no change with or without drug | -0.9 | 0.84 | Iba57 (IBA57 iron-sulfur cluster assembly factor) | 2
no change with or without drug | 1.12 | 1.18 | Cebpe (CCAAT/enhancer binding protein epsilon) | 1
no change with or without drug | 0 | -0.51 | Cnga2 (cyclic nucleotide gated channel alpha 2) | 1
no change with or without drug | 1.01 | 0.51 | Plagl2 (pleiomorphic adenoma gene-like 2) | 1

Hits, of those listed so far:
combined z-score class | viability z-score with doxorubicin | viability z-score without drug | Target gene | reagent no.
low cell count with doxorubicin only (active) | -2.02 | -0.84 | Sema3c | 1
